# Measurements: the supplement of paper PMC4604168 (melanoma cell lines)
# Some of the results follow. Single values are uncertain, as repeats are few or missing.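 Cells were imaged in 1,536-well plates, and nuclei stained with an antibody against cleaved PARP were counted against all DNA-stained nuclei to give the apoptosis fraction. Screening doses were chosen to leave most cells alive, and resting and induced cleaved-PARP levels differ strongly between cell lines.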
# Tests used:
# Assay in all cases: cleaved PARP positive nuclei fraction relative to DMSO control; melanoma cells; higher = more apoptosis
# Conditions in all cases: library dose: low library concentration; 72 h
# [1] = system: 501Mel
# [2] = system: A101D
# [3] = system: A2058
# [4] = system: A375
# [5] = system: C32
# [6] = system: CBRC008 (line from a melanoma biopsy)
# [7] = system: CBRC014 (line from a melanoma biopsy)
# [8] = system: CBRC016 (line from a melanoma biopsy)
# [9] = system: CBRC017 (line from a melanoma biopsy)
Compound,cleaved PARP positive nuclei fraction [1],cleaved PARP positive nuclei fraction [2],cleaved PARP positive nuclei fraction [3],cleaved PARP positive nuclei fraction [4],cleaved PARP positive nuclei fraction [5],cleaved PARP positive nuclei fraction [6],cleaved PARP positive nuclei fraction [7],cleaved PARP positive nuclei fraction [8],cleaved PARP positive nuclei fraction [9]
"CC(=O)O[C@@]12CO[C@@H]1C[C@H](O)[C@@]1(C)C(=O)[C@H](O)C3=C(C)[C@@H](OC(=O)[C@H](O)[C@@H](NC(=O)OC(C)(C)C)c4ccccc4)C[C@@](O)([C@@H](OC(=O)c4ccccc4)[C@H]21)C3(C)C [Docetaxel] + CNC(=O)c1cc(Oc2ccc(NC(=O)Nc3ccc(Cl)c(C(F)(F)F)c3)cc2)ccn1 [sorafenib] (first compound 0.0001 µM, partner dose 0.4 µM)",139%,72%,1800%,2480%,80.3%,1270%,140%,307%,174%
"CS(=O)(=O)c1ccc(C(=O)Nc2ccc(Cl)c(-c3ccccn3)c2)c(Cl)c1 [vismodegib] + CS(=O)(=O)CCNCc1ccc(-c2ccc3ncnc(Nc4ccc(OCc5cccc(F)c5)c(Cl)c4)c3c2)o1 [lapatinib] (first compound 1 µM, partner dose 0.8 µM)",99.3%,90.3%,156%,145%,136%,275%,115%,49.9%,114%
"CN(c1ncccc1CNc1nc(Nc2ccc3c(c2)CC(=O)N3)ncc1C(F)(F)F)S(C)(=O)=O + NC1(c2ccc(-c3nc4ccn5c(=O)[nH]nc5c4cc3-c3ccccc3)cc2)CCC1 [MK2206] (first compound 0.08 µM, partner dose 0.4 µM)",68.2%,171%,174%,154%,49.7%,99.6%,85.4%,65.7%,223%
"CS(=O)(=O)c1ccc(C(=O)Nc2ccc(Cl)c(-c3ccccn3)c2)c(Cl)c1 [vismodegib] + Cc1cc(Nc2cc(N3CCN(C)CC3)nc(/C=C/c3ccccc3)n2)n[nH]1 [ENMD2076] (first compound 1 µM, partner dose 0.04 µM)",88.6%,91.7%,78.1%,64.2%,81.3%,56%,78.7%,85.5%,89.5%
"CCCCCCCCc1ccc(CCC(N)(CO)CO)cc1 [fingolimod] + O=C(O)[C@@H]1[O][Sb](=[O])([O][Sb]2(=[O])[O][C@H]([C@H](O)CO)[C@H](O)[C@H](C(=O)O)[O]2)[O][C@H]([C@H](O)CO)[C@@H]1O [stibogluconate] (first compound 2 µM, partner dose 2 µM)",101%,91.9%,45.4%,340%,28.7%,84.1%,78.5%,133%,128%
"CCN(CC)CCNC(=O)c1c(C)[nH]c(/C=C2\C(=O)Nc3ccc(F)cc32)c1C [sunitinib] + CO[C@H]1C[C@@H]2CC[C@@H](C)[C@@](O)(O2)C(=O)C(=O)N2CCCC[C@H]2C(=O)O[C@H]([C@H](C)C[C@@H]2CC[C@@H](OCCO)[C@H](OC)C2)CC(=O)[C@H](C)/C=C(\C)[C@@H](O)[C@@H](OC)C(=O)[C@H](C)C[C@H](C)/C=C/C=C/C=C/1C [everolimus] (first compound 0.4 µM, partner dose 0.02 µM)",1010%,246%,200%,551%,103%,219%,110%,158%,117%
"NC1(c2ccc(-c3nc4ccn5c(=O)[nH]nc5c4cc3-c3ccccc3)cc2)CCC1 + C[C@@H](Oc1cc(-c2cnn(C3CCNCC3)c2)cnc1N)c1c(Cl)ccc(F)c1Cl [Crizotinib] (first compound 0.4 µM, partner dose 0.2 µM)",145%,160%,155%,89.7%,95.2%,57.2%,91.9%,136%,120%
"C[C@]1(O)C[C@@H](c2nc(-c3ccc4ccc(-c5ccccc5)nc4c3)c3c(N)nccn32)C1 + COCC[n+]1c2c(n(Cc3cnccn3)c1C)C(=O)c1ccccc1C2=O [YM155] (first compound 0.4 µM, partner dose 0.0004 µM)",164%,88.2%,80.9%,421%,80.6%,358%,112%,142%,103%
"C[C@]1(O)C[C@@H](c2nc(-c3ccc4ccc(-c5ccccc5)nc4c3)c3c(N)nccn32)C1 + C[C@@H](Oc1cc(-c2cnn(C3CCNCC3)c2)cnc1N)c1c(Cl)ccc(F)c1Cl [Crizotinib] (first compound 0.4 µM, partner dose 0.2 µM)",119%,49.4%,72.2%,341%,668%,120%,104%,76%,90.6%
"COc1ccc(C2=N[C@@H](c3ccc(Cl)cc3)[C@@H](c3ccc(Cl)cc3)N2C(=O)N2CCNC(=O)C2)c(OC(C)C)c1 [Nutlin-3] + CN1CCN(c2ccc3nc(-c4c(N)c5c(F)cccc5[nH]c4=O)[nH]c3c2)CC1 [Dovitinib] (first compound 0.1 µM, partner dose 0.1 µM)",134%,215%,40.3%,259%,146%,77.6%,88.8%,107%,98.4%
"CC1(C)CCC(c2ccc(Cl)cc2)=C(CN2CCN(c3ccc(C(=O)NS(=O)(=O)c4ccc(N[C@H](CCN5CCOCC5)CSc5ccccc5)c(S(=O)(=O)C(F)(F)F)c4)cc3)CC2)C1 + CO[C@H]1C[C@@H]2CC[C@@H](C)[C@@](O)(O2)C(=O)C(=O)N2CCCC[C@H]2C(=O)O[C@H]([C@H](C)C[C@@H]2CC[C@@H](OCCO)[C@H](OC)C2)CC(=O)[C@H](C)/C=C(\C)[C@@H](O)[C@@H](OC)C(=O)[C@H](C)C[C@H](C)/C=C/C=C/C=C/1C [everolimus] (first compound 0.4 µM, partner dose 0.02 µM)",776%,243%,130%,1190%,357%,714%,685%,1680%,395%
"CC1(C)CCC(c2ccc(Cl)cc2)=C(CN2CCN(c3ccc(C(=O)NS(=O)(=O)c4ccc(N[C@H](CCN5CCOCC5)CSc5ccccc5)c(S(=O)(=O)C(F)(F)F)c4)cc3)CC2)C1 + Nc1ncn([C@H]2C[C@H](O)[C@@H](CO)O2)c(=O)n1 [decitabine] (first compound 0.4 µM, partner dose 0.1 µM)",85.7%,195%,243%,535%,502%,534%,568%,684%,348%
"CC(=O)O[C@@]12CO[C@@H]1C[C@H](O)[C@@]1(C)C(=O)[C@H](O)C3=C(C)[C@@H](OC(=O)[C@H](O)[C@@H](NC(=O)OC(C)(C)C)c4ccccc4)C[C@@](O)([C@@H](OC(=O)c4ccccc4)[C@H]21)C3(C)C [Docetaxel] + OCc1c[nH]c2ccccc12 [Indole-3-carbinol] (first compound 0.0001 µM, partner dose 0.8 µM)",1090%,234%,2250%,1870%,414%,336%,170%,399%,214%
"C[C@@H](N)c1ccc(C(=O)Nc2ccnc3[nH]ccc23)cc1 + CC(=O)O[C@@]12CO[C@@H]1C[C@H](O)[C@@]1(C)C(=O)[C@H](O)C3=C(C)[C@@H](OC(=O)[C@H](O)[C@@H](NC(=O)OC(C)(C)C)c4ccccc4)C[C@@](O)([C@@H](OC(=O)c4ccccc4)[C@H]21)C3(C)C [Docetaxel] (first compound 0.4 µM, partner dose 0.0001 µM)",130%,138%,6440%,5220%,94.2%,393%,167%,216%,258%
"CC(=O)O[C@@]12CO[C@@H]1C[C@H](O)[C@@]1(C)C(=O)[C@H](O)C3=C(C)[C@@H](OC(=O)[C@H](O)[C@@H](NC(=O)OC(C)(C)C)c4ccccc4)C[C@@](O)([C@@H](OC(=O)c4ccccc4)[C@H]21)C3(C)C [Docetaxel] + Nc1nc(F)nc2c1ncn2[C@@H]1O[C@H](CO)[C@@H](O)[C@@H]1O [fludarabine] (first compound 0.0001 µM, partner dose 0.2 µM)",11200%,354%,8690%,5550%,279%,198%,190%,417%,274%
"Cn1cnc2c(F)c(Nc3ccc(Br)cc3Cl)c(C(=O)NOCCO)cc21 [selumetinib] + CCCS(=O)(=O)Nc1ccc(F)c(C(=O)c2c[nH]c3ncc(Cl)cc23)c1F [PLX4720] (first compound 0.015 µM, partner dose 0.08 µM)",261%,119%,109%,362%,89.8%,118%,238%,83.4%,130%
"CCN(CC)CCNC(=O)c1c(C)[nH]c(/C=C2\C(=O)Nc3ccc(F)cc32)c1C [sunitinib] + Cn1nnc2c(C(N)=O)ncn2c1=O [temozolomide] (first compound 0.4 µM, partner dose 2 µM)",140%,103%,84%,102%,84.1%,65.9%,95.6%,80.5%,104%
"Cn1cnc2c(F)c(Nc3ccc(Br)cc3Cl)c(C(=O)NOCCO)cc21 [selumetinib] + Cc1cc(Nc2cc(N3CCN(C)CC3)nc(/C=C/c3ccccc3)n2)n[nH]1 [ENMD2076] (first compound 0.015 µM, partner dose 0.04 µM)",611%,69.5%,154%,372%,87.4%,106%,82%,107%,83.5%
"C[C@]1(O)C[C@@H](c2nc(-c3ccc4ccc(-c5ccccc5)nc4c3)c3c(N)nccn32)C1 + Nc1ccn([C@@H]2O[C@H](CO)[C@@H](O)C2(F)F)c(=O)n1 [gemcitabine] (first compound 0.4 µM, partner dose 0.0004 µM)",108%,62.2%,120%,242%,145%,343%,133%,54.2%,92%
"CN(c1ncccc1CNc1nc(Nc2ccc3c(c2)CC(=O)N3)ncc1C(F)(F)F)S(C)(=O)=O + Cn1c(Nc2ccc(C(F)(F)F)cc2)nc2cc(Oc3ccnc(-c4ncc(C(F)(F)F)[nH]4)c3)ccc21 [CHIR265] (first compound 0.08 µM, partner dose 0.08 µM)",93.3%,110%,264%,1160%,92%,190%,117%,83.2%,209%

# Taken from above:
# Entry of CC1(C)CCC(c2ccc(Cl)cc2)=C(CN2CCN(c3ccc(C(=O)NS(=O)(=O)c4ccc(N[C@H](CCN5CCOCC5)CSc5ccccc5)c(S(=O)(=O)C(F)(F)F)c4)cc3)CC2)C1 + Nc1ncn([C@H]2C[C@H](O)[C@@H](CO)O2)c(=O)n1 [decitabine] (first compound 0.4 µM, partner dose 0.1 µM) under cleaved PARP positive nuclei fraction [7]: 568%
# Entry of C[C@]1(O)C[C@@H](c2nc(-c3ccc4ccc(-c5ccccc5)nc4c3)c3c(N)nccn32)C1 + Nc1ccn([C@@H]2O[C@H](CO)[C@@H](O)C2(F)F)c(=O)n1 [gemcitabine] (first compound 0.4 µM, partner dose 0.0004 µM) under cleaved PARP positive nuclei fraction [3]: 120%
